Experimental data as given in paper PMC12329634.
Results are given in words; binding and its absence hold for the method and conditions named. In cells and extracts the contact can be indirect. Some results given as binding are weak or reduced against the parent protein; the word gives no strength.

By UniProt entry, the sequences of proteins in these tests, tags left out.
UniProt P63159: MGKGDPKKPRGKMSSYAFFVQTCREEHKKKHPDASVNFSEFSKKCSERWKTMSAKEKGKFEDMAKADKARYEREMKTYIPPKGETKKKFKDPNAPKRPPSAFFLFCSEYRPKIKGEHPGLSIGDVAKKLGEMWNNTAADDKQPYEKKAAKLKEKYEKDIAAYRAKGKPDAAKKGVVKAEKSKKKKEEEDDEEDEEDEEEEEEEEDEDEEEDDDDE
UniProt Q91XJ1: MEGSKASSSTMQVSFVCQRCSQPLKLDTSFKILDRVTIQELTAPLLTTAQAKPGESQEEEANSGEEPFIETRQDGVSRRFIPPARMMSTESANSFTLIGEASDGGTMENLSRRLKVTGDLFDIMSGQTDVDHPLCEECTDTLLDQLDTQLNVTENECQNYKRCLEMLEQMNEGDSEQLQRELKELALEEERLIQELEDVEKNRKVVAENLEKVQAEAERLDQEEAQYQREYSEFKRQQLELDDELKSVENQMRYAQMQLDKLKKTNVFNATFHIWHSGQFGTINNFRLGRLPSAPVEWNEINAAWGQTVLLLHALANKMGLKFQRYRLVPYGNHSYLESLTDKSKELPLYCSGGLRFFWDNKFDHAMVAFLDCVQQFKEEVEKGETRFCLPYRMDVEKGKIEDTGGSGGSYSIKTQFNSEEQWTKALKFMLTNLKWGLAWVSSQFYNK

Target: high mobility group box 1 (UniProt P63159)
Test: co-IP; HMGB1 and Beclin1 co-immunoprecipitation from cells of the normal control, OGD/R (8 h OGD followed by 24 h reperfusion) and IPOC groups; Beclin1 and HMGB1 detected by western blot

## Beclin1 (from UniProt Q91XJ1 1-448)
  binding: binds
